Source: the supplement of paper PMC3334620
Whole data set: some 33,000 sequences, median “E-score (-0.5 to 0.5)” near -8e-05, cut for the highest 2% near 0.23. This is one part of the list.

target: T1, Nrg2 (UniProt P38082); assay: PBM E-score (8-mer binding enrichment) (E-score (-0.5 to 0.5)); higher = stronger / more preferred TF binding; conditions: protein concentration: 100 nM; construct: GST-full length
T1 sequence: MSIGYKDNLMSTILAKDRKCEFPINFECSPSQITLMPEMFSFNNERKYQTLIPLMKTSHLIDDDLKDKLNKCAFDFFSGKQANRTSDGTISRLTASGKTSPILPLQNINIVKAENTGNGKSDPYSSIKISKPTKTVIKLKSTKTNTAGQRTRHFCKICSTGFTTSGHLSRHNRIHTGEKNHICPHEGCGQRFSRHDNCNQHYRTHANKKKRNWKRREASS
In short: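 Detection of bound protein used fluorescent anti-GST, with scans normalised by masliner. The proteins were GST-tagged yeast transcription factors applied at about 100-200 nM to universal all-10-mer Agilent arrays made double-stranded by primer extension. Each ungapped eight-base word, pooled with its reverse complement, was scored with an E-score from the Universal PBM Analysis Suite.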

Sequence | PBM E-score
ACTTGTAA | -0.0121
CGCGAGGA | 0.0651
AATATGTC | 0.157
GCTGGTCC | 0.0876
AAGCGGGC | -0.268
ATACCTCG | 0.0803
CCTATCGC | -0.134
ATGGCGCC | 0.0356
AGACGGCA | -0.0306
TATGTCAA | 0.14
CCGATCCG | -0.139
AATCGCGA | 0.185
CCATAAGC | -0.131
AAGTCGCA | 0.0959
GGCAAGGA | 0.00691
CAGCACTG | -0.0889
AAGAGAGC | -0.127
CCGGTAAA | -0.0724
ACTCGACC | -0.185
ATAGATAA | 0.121
CACTGTAG | 0.185
CCACAGGC | -0.246
GCCACAAC | 0.0257
AGTACCGA | -0.153
AGAGCGCC | 0.0188

Sequence | PBM E-score
GATTGACC | -0.119
ACGAGCCA | -0.0675
AAGCCCGC | -0.0421
GACTGATC | -0.0428
AGCCATCG | -0.00776
AGTCTAAT | -0.0606
AGGGTCTG | 0.216
GATTGACA | 0.186
CCAAAGAA | -0.029
AGACATTC | -0.0988
CCTGTGCA | -0.0366
CAGACCAG | -0.0557
ATAACTTA | 0.0524
GAGTTGTA | 0.0221
CCCCGCCG | 0.011
CGACTGAG | -0.0854
AGTGGAAT | 0.02
CATTAACA | -0.0603
AGCTGAAT | 0.112
CATCAGTA | 0.0579
CCTAACGC | 0.0164
CACTGTTA | -0.0501
CGTTCCTC | -0.0798
AACCGAGG | -0.239
CATTGTAA | -0.00214

Sequence | PBM E-score
ACCGCTGC | -0.123
AACCGCAG | -0.153
ACGACTCC | -0.0677
CATCATGA | 0.118
ATGATTGA | 0.086
ATAACCTG | -0.0869
ACAGCTGC | -0.0727
ACCACACA | 0.148
GGAGGGCC | -0.112
CTGACCTA | 0.0551
ATATGGTC | 0.139
CCACGCAC | 0.0752
CTCGCTTA | 0.132
ATCTGCCA | -0.0835
AAATTGTT | 0.0684
ACTCCCAT | -0.0967
GGCCTCCC | -0.154
AGAATTCA | 0.0705
CTTCTGGA | -0.0666
ACTGCAGT | 0.00777
AGGGCCAG | -0.0582
TGCTTCCA | -0.307
ACACATTG | 0.105
CGCTGTAA | 0.0109
ACGAACAT | 0.129

5 entries from above, in CSV form.
Sequence,PBM E-score
AGGGCCAG,-0.0582
TGCTTCCA,-0.307
ACACATTG,0.105
CGCTGTAA,0.0109
ACGAACAT,0.129

Another view of part of the listing above.
ACCGCTGC
  PBM E-score: -0.123
AACCGCAG
  PBM E-score: -0.153
ACGACTCC
  PBM E-score: -0.0677
CATCATGA
  PBM E-score: 0.118

The listing continues:

Sequence | PBM E-score
ATTTTCGG | 0.152
TTATACAA | 0.0467
ATTGACTG | 0.016
CATCTCCA | 0.034
CCGGGACG | -0.202
ATAAGGAA | -0.15
GGGATTAA | 0.139
AGAAATCT | -0.0175
GACATGCC | -0.115
GTCATCTA | 0.0314
GTGTTGCA | -0.0333
AGCCCTAC | -0.0905
CTATTAAC | 0.0717
CAATAGCG | 0.0188
TGGGAGAA | -0.271
ACATCCGC | -0.00443
ATCAGCCG | -0.0958
ACTCCCAG | -0.0427
ACAGGAGA | -0.0632
CATCCGAC | 0.0774
ACAGGATG | 0.0354
CTCCGTGC | -0.168
ACAGGGAC | 0.339
AGATAGAA | -0.0277
ATCAACAG | 0.141

Sequence | PBM E-score
CTTATCGA | 0.0597
TAAACCCA | 0.0992
CATGAGGC | -0.109
GTCTATAA | 0.15
ACACTATA | 0.181
AGCTCCAT | -0.0637
GGTATATA | 0.169
AAGATAGG | -0.0249
AAGGCCCG | -0.333
ATTGGGGC | 0.155
AGCATATG | -0.178
ACAAATCG | 0.106
GTGAGCAA | -0.0485
GCGATGCC | -0.136
CCCCTCAC | 0.113
GAGTCAGC | -0.151
CCTAGGAC | -0.19
GGAACTTA | 0.00245
AGACATGA | 0.0439
GCTTCTGA | 0.0375
GCTACGCA | -0.108
ATTCACAC | 0.0789
AAGAGCGT | 0.0682
ACAAAGGC | -0.123
AATGTGCG | 0.187

Sequence | PBM E-score
AGAACATC | 0.0252
CTAACTTC | -0.0311
AGCTTCTG | 0.00485
GGCACTGA | -0.0586
AACGTGCC | -0.0639
GCTTCAAA | -0.0192
GGACCTCA | -0.0157
ATGAGGGC | -0.0863
CGGTAAGC | -0.126
AGCTTAAA | -0.0453
AACCTATG | -0.101
GTCGCGAC | 0.37
CCGCAAGC | -0.121
CACGTGCA | 0.0587
CTTAGCAA | 0.0486
GAAATTCA | 0.132
ACTGATTC | 0.054
GACATAAC | 0.0528
AGATTTTG | 0.0708
CACAGAGC | -0.0147
AGTGTAGG | -0.00233
TGCGGACA | 0.0396
GGGCTACA | -0.112
ACTCAAGT | -0.101
GCGCTTAC | -0.147

Sequence | PBM E-score
AACAACAT | -0.0432
CACCCGCA | -0.00365
CCTTAATC | 0.0766
CGCTGCTC | -0.0853
AAATTCGC | 0.234
CAATACAG | 0.125
ATCGCGTG | 0.117
CCGACAGG | 0.0606
CTACAATC | 0.104
CGGATATA | 0.128
CTTTGGAA | -0.152
CAACGCCC | -0.0735
CGGCTTGA | -0.0482
TAAACAAA | 0.0611
CCAGCACC | -0.141
CCTTACCA | -0.137
ACCACCCC | -0.2
AATGTTAT | 0.0988
ACTTAAAG | -0.164
CTGTTAAC | 0.221
CACCTCTA | -0.15
CGATCAGC | -0.0819
